# Measurements taken from the supplement of paper PMC12067093, “Discovery and optimisation of a covalent ligand for TRIM25 and its application to targeted protein ubiquitination” (Chemical Science, 2025).
# The chains behind the UniProt entries cited, without tags or fusion partners. Where a name states a change or a piece, a line headed by the entry shows the natural chain unless it says otherwise.
# UniProt Q15020: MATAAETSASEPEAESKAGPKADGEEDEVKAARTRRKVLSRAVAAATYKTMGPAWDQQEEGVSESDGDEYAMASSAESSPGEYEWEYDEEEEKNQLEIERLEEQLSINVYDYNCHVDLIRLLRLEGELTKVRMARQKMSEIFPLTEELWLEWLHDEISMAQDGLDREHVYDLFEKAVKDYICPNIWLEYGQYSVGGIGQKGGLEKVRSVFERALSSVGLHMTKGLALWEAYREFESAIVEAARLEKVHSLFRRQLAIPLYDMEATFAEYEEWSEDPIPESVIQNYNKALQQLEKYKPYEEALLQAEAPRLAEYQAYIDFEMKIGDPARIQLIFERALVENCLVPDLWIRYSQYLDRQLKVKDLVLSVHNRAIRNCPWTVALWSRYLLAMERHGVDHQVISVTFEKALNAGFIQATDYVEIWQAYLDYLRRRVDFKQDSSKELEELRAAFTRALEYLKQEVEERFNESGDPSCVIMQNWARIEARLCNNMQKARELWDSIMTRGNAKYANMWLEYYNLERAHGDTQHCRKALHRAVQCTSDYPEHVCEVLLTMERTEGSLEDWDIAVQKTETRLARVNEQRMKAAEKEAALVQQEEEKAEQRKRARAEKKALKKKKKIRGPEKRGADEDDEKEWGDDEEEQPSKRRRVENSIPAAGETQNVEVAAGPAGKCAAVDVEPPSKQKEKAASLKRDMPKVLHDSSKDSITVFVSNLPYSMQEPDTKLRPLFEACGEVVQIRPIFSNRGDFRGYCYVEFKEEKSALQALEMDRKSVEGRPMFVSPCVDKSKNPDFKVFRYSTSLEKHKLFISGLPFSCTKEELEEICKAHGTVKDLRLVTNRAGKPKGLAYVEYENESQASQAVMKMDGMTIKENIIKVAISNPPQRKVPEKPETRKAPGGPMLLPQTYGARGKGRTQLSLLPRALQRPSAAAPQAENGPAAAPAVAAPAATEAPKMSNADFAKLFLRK
# UniProt Q9UQR0: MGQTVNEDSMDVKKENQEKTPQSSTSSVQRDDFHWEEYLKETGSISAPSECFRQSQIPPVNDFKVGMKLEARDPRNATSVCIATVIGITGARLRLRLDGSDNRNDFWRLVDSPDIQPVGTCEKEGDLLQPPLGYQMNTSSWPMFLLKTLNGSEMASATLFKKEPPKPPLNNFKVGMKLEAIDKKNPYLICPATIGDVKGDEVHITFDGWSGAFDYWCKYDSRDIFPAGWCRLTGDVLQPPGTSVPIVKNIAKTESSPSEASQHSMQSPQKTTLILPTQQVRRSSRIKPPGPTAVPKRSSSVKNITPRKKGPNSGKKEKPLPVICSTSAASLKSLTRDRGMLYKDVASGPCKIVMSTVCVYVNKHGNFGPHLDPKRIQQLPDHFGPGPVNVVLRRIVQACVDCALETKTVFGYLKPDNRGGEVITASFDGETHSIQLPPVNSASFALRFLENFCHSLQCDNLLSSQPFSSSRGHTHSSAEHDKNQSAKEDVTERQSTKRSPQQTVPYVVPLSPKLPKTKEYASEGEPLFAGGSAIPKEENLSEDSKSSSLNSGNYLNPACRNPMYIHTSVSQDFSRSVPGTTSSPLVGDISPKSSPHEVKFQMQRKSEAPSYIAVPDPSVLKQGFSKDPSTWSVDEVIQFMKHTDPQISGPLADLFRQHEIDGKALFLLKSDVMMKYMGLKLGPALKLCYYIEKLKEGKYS
# UniProt Q8WU76: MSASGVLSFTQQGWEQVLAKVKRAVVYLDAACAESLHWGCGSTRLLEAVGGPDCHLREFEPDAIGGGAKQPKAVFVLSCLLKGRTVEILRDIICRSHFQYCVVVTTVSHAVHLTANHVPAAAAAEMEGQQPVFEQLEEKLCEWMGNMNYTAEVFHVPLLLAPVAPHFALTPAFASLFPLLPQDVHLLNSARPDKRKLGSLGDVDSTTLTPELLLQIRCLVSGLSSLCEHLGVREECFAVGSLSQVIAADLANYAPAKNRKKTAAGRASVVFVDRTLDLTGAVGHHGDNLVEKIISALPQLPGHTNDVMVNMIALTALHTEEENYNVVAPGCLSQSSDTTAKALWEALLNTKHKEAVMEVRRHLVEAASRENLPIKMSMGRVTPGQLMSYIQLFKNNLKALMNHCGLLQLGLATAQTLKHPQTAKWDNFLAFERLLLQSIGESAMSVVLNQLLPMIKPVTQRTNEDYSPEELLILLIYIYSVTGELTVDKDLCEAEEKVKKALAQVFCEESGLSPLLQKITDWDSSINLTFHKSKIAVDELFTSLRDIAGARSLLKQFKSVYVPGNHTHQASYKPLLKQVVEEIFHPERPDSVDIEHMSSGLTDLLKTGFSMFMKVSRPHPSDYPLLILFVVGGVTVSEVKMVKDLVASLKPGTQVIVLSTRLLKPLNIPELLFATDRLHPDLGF
# UniProt Q0VDG4: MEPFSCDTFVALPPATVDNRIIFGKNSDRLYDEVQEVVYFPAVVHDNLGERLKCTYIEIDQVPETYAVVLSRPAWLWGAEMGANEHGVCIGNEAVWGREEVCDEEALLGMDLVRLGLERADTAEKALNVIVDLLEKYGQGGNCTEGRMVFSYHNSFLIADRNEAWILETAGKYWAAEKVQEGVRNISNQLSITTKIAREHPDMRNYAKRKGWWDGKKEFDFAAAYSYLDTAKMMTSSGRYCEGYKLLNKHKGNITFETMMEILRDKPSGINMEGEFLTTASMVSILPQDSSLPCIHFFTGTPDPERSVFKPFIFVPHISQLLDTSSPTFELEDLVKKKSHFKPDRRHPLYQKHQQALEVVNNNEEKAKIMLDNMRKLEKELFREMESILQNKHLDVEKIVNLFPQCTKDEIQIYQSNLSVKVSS
# UniProt O75446: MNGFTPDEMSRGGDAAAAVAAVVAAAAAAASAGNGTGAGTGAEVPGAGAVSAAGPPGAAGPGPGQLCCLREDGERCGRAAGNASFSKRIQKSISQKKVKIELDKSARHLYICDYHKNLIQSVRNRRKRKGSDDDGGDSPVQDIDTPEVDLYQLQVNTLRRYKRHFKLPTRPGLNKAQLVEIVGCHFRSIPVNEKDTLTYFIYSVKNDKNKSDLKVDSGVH
# UniProt Q9Y3Z3: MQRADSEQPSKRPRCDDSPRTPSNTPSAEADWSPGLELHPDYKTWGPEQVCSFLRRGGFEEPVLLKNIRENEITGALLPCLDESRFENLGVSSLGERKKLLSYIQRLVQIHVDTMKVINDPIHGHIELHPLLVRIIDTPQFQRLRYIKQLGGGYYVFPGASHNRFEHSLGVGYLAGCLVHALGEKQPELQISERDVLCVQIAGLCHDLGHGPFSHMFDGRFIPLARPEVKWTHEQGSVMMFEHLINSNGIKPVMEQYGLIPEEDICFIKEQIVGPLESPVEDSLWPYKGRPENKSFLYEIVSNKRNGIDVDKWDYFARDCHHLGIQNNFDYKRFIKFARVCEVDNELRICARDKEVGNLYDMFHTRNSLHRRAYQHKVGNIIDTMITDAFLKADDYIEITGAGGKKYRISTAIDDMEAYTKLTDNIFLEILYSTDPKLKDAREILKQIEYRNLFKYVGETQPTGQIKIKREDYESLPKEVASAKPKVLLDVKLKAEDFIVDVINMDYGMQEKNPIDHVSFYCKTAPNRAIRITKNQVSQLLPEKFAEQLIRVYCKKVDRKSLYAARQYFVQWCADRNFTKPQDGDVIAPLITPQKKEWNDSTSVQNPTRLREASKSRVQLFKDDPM
# UniProt Q15437: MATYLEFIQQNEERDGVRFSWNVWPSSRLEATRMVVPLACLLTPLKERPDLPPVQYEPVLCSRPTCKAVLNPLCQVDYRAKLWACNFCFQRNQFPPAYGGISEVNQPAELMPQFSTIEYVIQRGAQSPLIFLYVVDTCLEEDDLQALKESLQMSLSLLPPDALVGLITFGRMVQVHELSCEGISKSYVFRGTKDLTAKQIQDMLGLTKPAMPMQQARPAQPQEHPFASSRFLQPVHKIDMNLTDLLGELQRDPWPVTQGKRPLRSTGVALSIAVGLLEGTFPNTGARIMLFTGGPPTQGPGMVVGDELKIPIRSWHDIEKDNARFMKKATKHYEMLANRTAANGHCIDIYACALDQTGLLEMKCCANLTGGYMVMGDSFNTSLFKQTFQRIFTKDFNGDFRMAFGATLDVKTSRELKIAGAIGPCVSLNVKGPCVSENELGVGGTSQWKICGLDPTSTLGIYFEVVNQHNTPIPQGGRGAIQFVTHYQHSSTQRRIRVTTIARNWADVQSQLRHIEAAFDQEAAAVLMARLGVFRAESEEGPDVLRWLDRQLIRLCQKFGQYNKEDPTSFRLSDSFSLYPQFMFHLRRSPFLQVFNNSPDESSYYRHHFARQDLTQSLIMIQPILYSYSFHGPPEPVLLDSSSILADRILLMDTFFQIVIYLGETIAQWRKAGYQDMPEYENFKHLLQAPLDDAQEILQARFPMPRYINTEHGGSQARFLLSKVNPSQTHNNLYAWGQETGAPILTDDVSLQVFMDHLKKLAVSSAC
# UniProt O95104: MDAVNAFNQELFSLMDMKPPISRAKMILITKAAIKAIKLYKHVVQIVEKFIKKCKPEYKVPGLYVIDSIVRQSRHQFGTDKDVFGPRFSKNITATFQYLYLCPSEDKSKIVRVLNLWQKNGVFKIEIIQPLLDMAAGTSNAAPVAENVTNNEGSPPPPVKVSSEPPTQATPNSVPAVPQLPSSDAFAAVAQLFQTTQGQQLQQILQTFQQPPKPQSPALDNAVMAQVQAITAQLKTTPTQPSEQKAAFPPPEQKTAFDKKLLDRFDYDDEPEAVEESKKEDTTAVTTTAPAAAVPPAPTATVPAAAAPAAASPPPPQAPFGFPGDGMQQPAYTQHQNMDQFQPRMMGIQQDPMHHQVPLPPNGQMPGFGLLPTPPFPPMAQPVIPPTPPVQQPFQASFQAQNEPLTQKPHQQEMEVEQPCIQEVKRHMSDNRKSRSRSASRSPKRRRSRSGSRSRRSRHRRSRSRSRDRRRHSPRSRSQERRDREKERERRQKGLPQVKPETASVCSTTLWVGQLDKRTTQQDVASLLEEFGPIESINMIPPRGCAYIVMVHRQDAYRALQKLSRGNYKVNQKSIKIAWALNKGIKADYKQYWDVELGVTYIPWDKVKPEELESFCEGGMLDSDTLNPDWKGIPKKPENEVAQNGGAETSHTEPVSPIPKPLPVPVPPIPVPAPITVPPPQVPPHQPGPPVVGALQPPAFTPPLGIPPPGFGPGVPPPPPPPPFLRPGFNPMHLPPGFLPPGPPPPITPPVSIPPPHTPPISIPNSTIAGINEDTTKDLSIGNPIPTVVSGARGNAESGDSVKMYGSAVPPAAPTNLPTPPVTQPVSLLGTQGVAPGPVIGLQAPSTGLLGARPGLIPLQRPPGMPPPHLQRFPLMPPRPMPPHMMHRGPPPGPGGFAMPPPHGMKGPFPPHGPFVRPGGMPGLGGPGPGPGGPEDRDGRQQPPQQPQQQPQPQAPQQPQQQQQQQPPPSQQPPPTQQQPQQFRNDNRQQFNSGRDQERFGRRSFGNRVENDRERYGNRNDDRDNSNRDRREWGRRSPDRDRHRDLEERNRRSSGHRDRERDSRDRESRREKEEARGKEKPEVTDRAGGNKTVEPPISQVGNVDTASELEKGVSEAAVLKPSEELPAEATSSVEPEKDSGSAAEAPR
# UniProt Q96KG9: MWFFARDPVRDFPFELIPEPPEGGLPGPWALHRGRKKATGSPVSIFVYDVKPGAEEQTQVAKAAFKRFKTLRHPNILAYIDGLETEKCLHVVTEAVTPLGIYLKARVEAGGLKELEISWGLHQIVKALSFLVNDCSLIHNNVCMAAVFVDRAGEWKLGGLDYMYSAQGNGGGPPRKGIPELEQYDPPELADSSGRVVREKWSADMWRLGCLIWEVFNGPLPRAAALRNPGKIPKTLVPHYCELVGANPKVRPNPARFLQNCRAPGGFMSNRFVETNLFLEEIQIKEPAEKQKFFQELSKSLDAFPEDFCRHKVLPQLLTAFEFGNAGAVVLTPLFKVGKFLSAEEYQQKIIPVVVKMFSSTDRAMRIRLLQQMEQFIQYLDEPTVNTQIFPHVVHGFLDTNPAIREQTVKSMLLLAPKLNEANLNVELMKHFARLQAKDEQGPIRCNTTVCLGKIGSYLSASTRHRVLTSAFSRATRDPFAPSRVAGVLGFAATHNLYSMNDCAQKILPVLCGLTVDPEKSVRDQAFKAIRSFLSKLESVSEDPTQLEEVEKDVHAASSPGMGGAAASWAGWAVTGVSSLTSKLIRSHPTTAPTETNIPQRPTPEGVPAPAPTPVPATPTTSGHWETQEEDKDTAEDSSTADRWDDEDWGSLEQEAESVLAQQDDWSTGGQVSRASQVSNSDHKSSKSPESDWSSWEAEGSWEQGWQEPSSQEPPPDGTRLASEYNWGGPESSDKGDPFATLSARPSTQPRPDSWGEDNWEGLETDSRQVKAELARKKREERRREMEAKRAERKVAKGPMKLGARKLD
# UniProt Q9NR31: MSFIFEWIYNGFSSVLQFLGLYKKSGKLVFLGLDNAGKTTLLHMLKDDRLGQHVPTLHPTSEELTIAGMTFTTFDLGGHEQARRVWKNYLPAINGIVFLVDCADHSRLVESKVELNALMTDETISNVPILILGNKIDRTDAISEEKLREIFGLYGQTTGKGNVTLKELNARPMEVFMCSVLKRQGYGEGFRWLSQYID
# Some of the results follow.
# Compound: CC1Cc2ccccc2N1C(=O)C1CCCN(C1)C(=O)CCl (mixture of isomers) [TRIM25 ligand 11 (diastereomer mixture)]
# Test: probe-labelled cysteine peptide fold change vs DMSO (competition) (log2 fold change); higher = less target engagement (more negative = stronger competition)
# Details: THP-1, incubation time: 4 h
# 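Also: competitive chemoproteomic profiling in live THP-1 cells with an iodoacetamide desthiobiotin (IA-DTB) probe, comparing probe-labelled peptide intensities in compound-treated cells against DMSO-treated controls.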
Target,probe-labelled cysteine peptide fold change (10 µM),probe-labelled cysteine peptide fold change (50 µM)
SDHA_P31040_475_ACALSIEESCRPGDKVPPIKPNAGEESVMNLDK (UniProt P31040),-0.0987,-0.0334
SART3_Q15020_821_EELEEICK (UniProt Q15020),0.177,0.153
SEC13_P55735_153_INNAHTIGCNAVSWAPAVVPGSLIDHPSGQK (UniProt P55735),0.356,0.08
SART3_Q15020_812_LFISGLPFSCTK (UniProt Q15020),-0.0453,-0.125
SCML2_Q9UQR0_559_SSSLNSGNYLNPACR (UniProt Q9UQR0),-0.148,-0.14
SCFD2_Q8WU76_218_CLVSGLSSLCEHLGVR (UniProt Q8WU76),0.0794,-0.0371
SCRN3_Q0VDG4_143_YGQGGNCTEGR (UniProt Q0VDG4),0.127,0.144
SAP30_O75446_112_HLYICDYHK (UniProt O75446),0.0172,0.0453
SAMHD1_Q9Y3Z3_320_DCHHLGIQNNFDYK (UniProt Q9Y3Z3),0.0717,0.0765
SEC23B_Q15437_352_TAANGHCIDIYACALDQTGLLEMK (UniProt Q15437),-0.0764,-0.0575
SDHA_P31040_654_TLNEADCATVPPAIR (UniProt P31040),0.0204,-0.209
SCAF4_O95104_420_PHQQEMEVEQPCIQEVK (UniProt O95104),0.063,-0.211
SCYL1_Q96KG9_143_ALSFLVNDCSLIHNNVCMAAVFVDR (UniProt Q96KG9),0.00271,0.086
SAR1A_Q9NR31_102_NYLPAINGIVFLVDCADHSR (UniProt Q9NR31),0.00914,-0.0176

# Individual results from above.
# In probe-labelled cysteine peptide fold change (10 µM), SAR1A_Q9NR31_102_NYLPAINGIVFLVDCADHSR (UniProt Q9NR31) is entered as 0.00914
# In probe-labelled cysteine peptide fold change (50 µM), SEC13_P55735_153_INNAHTIGCNAVSWAPAVVPGSLIDHPSGQK (UniProt P55735) is entered as 0.08
